Binding data for two molecules are collected here from patent US20150037339A1.

The chains behind the UniProt entries cited, without tags or fusion partners. Where a name states a change or a piece, a line headed by the entry shows the natural chain unless it says otherwise.
UniProt P09529: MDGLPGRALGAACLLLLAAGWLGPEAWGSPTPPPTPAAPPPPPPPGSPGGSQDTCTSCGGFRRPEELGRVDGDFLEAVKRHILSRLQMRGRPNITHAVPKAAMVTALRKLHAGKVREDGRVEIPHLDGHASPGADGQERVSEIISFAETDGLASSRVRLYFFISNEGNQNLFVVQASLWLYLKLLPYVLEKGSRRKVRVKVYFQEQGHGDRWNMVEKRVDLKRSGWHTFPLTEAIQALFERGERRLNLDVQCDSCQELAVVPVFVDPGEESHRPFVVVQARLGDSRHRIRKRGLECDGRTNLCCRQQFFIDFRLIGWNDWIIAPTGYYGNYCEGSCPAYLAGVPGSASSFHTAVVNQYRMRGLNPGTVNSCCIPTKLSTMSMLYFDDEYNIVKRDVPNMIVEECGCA
UniProt P08476: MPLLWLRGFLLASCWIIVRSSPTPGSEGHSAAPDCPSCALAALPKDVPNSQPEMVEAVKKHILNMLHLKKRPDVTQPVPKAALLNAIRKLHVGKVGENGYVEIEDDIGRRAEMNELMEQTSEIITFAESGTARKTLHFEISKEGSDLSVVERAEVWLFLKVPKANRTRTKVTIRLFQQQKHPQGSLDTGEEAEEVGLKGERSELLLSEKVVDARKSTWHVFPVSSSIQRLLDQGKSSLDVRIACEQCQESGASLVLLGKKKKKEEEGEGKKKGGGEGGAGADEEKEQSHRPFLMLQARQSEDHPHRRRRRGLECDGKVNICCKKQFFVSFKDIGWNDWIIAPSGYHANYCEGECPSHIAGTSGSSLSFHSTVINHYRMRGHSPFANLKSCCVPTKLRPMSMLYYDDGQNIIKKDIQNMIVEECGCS

Assay [1] has as its target Activin B (human) (UniProt P09529). The experiment in a line: SPR Biacore 4000, captured mAb, 200 nM ligand, 37C.
Assay [2] has as its target Activin AB (human) (UniProt P08476). The experiment in a line: SPR Biacore 4000, captured mAb, 200 nM ligand, 37C. (In general: Surface plasmon resonance follows binding to a sensor surface in real time, without labels.)

These are yes or no findings as the source states them, for the method shown. Some results given as binding are weak or reduced against the parent protein; the word gives no strength.

B1: H4H10429P (antibody, human IgG4, V domains shown)
VH: QVQLVESGGGVVQPGRSLRLSCVASGFTVSSYGIHWVRQAPGKGLEWVSVIWYDGRNKDYADSVKGRFTISRDNSKNTVYLEMKGLRAEDTALYYCARDKTGDFDSWGQGTLVTVSS
VL: DIQMTQSPSSLSASVGDRVTITCRASQNINSFLSWYQQKPGKAPKFLIYDASSIQSGAPSRFSGSGSGTDFTLTISSLQPEDFATYYCQQSYSSPFTFGQGTKLEIK
As to B1, the binding entry in assay [1] and in assay [2] was “binds” each time.

B2: H4H10430P (antibody, human IgG4, V domains shown)
VH: EVQLVESGGGLVQPGRSLRLSCKASGFAFDDFAMHWVRQAPGKGLEWVSGIVWNSGDIGYADSVKGRFTISRDNAKNSLYLQLNSLRTEDTALYFCVKDMVRGLMGFNYYGMDVWGQGTTVTVSS
VL: EIVLTQSPATLSLSPGERATLSCRASQTISTYLVWYRQRPGQAPSLLIYDASNRATDIPARFSGSGSGTDFTLTISSLEPEDFAVYYCQQRSNWPITFGQGTRLEIK
Take B2: the binding entry in assay [2] was “binds”.
